Results are given in words; binding and its absence hold for the method and conditions named. In cells and extracts the contact can be indirect. Some binding calls cover weakened binding; strength is not graded here.
Target: Integrin alpha-5 (ITGA5) (UniProt P08648)
Experiment: co-IP; cell protein extracts in Co-IP Lysis Buffer, pre-cleared with magnetic beads at 4 °C for 1 h; target-specific antibodies overnight at 4 °C; Protein A/G magnetic beads 4 h at 4 °C; Western blot; cells and precipitated protein not stated

By UniProt entry, the sequences of proteins in these tests, tags left out. Residues count along the entry.
UniProt P08648, residues 42-1049: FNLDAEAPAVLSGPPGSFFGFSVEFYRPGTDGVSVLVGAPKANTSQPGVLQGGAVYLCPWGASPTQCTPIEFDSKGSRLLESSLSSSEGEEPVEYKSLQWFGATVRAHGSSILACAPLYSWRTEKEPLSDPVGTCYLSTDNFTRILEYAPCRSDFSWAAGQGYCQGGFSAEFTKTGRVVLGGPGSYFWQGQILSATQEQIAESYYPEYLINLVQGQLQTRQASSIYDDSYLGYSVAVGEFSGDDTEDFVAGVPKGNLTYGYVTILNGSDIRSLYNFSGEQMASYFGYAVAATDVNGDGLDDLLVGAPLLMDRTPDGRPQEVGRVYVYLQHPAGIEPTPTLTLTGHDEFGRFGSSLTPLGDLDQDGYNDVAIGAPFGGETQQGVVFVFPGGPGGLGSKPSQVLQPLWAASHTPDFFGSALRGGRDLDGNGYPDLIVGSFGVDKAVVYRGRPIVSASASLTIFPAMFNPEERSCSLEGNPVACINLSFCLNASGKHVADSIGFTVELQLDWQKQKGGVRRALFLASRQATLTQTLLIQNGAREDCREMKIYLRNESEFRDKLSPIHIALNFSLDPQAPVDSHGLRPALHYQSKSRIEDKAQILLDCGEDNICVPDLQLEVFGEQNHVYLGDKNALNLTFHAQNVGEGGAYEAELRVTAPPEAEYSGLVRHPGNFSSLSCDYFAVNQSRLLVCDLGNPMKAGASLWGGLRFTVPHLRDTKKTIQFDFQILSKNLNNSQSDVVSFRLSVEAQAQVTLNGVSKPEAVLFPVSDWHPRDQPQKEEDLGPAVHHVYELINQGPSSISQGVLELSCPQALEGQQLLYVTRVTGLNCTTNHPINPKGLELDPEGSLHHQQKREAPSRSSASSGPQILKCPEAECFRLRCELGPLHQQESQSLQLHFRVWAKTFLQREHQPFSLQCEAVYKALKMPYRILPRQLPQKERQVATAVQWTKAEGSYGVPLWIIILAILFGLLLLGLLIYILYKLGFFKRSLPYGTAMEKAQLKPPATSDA

binding: binds
B1: microfibril-associated protein 5 (MFAP5) (protein, UniProt Q13361 22-173)
chain: IPLGVNSQRGDDVTQATPETFTEDPNLVNDPATDETVLAVLADIAPSTDDLASLSEKNTTAECWDEKFTCTRLYSVHRPVKQCIHQLCFTSLRRMYIVNKEICSRLVCKEHEAMKDELCRQMAGLPPRRLRRSNYFRLPPCENVDLQRPNGL
